Results taken from patent publication EP4722203A1, “3,4-DIHYDROPHTHALAZIN-1(2H)-ONE DERIVATIVE, AND PREPARATION METHOD THEREFOR AND USE THEREOF” (Academy of Military Medical Sciences, priority 2023, dated 2024).
At least one structure is not confirmed: it was looked up by name or label, or the drawing left a doubt.

Tests used:
[1] = tested on: human multiple myeloma NCI-H929 xenograft tumors; assay: In vivo activity in combination with dexamethasone against NCI-H929 transplanted tumor; parameters: species or system NOD/SCID mice; conditions: each drug 3 mg/kg, QD
Experimental: In this example, human multiple myeloma NCI-H929 cell line was selected as the cell model to determine the inhibitory effects of compound and dexamethasone alone, as well as combination thereof on the growth of NOD/SCID mouse transplanted tumors of NCI-H929 tumor cells. The evaluation methods and results are described below.
(§1) Human multiple myeloma NCI-H929 cells were routinely cultured in RPMI1640 containing 10% fetal bovine serum at 37°C in a 5% CO2 incubator. After three passages in vitro, when the cells reached over 80% confluence and the required confluence rate, the cells were digested and harvested. After washing with PBS, the cells were counted and the cell concentration was adjusted to approximately 5 × 10^7 cells/mL. […]
(§2) The route of administration was oral gavage, and the administration frequency was once daily, for 10 consecutive days. […] Tumor volume changes in mice were measured and recorded every two days. Tumor volume was measured using a vernier caliper, in which the major axis (a) and minor axis (b) of the tumor were measured, and the tumor volume was calculated as tumor volume V (mm^3) = a x b^2/2. After the experiment, the mice were dissected and the tumor weight was measured. The data were entered and statistically analyzed using GraphPad Prism 6 software. The data are expressed as mean ± SEM (Standard Error of Mean), and one-way ANOVA was used. […]

[2] = tested on: human multiple myeloma NCI-H929 xenograft tumors; assay: In vivo activity of combination therapy with bortezomib or tazemetostat against NCI-H929 transplanted tumor; parameters: species or system NOD/SCID mice; conditions: I-8 3 mg/kg QD; bortezomib 1 mg/kg BIW; tazemetostat 100 mg/kg QD; alone or combined
Experimental: In this example, the human multiple myeloma NCI-H929 cell line was selected as the cell model to determine the inhibitory effects of compounds, bortezomib (Bort), and tazemetostat (Taze), as single drugs and in combination, on the growth of NOD/SCID mouse transplanted tumors of NCI-H929 tumor cells. The evaluation methods and results are described below.
as §1, §2

C[C@@H]1C[C@H]2[C@@H]3CCC4=CC(=O)C=C[C@]4(C)[C@@]3(F)[C@@H](O)C[C@]2(C)[C@@]1(O)C(=O)CO [Dex, dexamethasone, reference compound]
growth of NCI-H929 transplanted tumors (in words) [1]: weaker tumor-inhibiting activity

CCN(c1cc(-c2ccc(CN3CCOCC3)cc2)cc(C(=O)NCc2c(C)cc(C)[nH]c2=O)c1C)C1CCOCC1 [Taze, tazemetostat]
growth of NCI-H929 transplanted tumors (in words) [2]: weaker tumor-inhibiting abilities
